The other results are listed elsewhere or left out.
Target: T1, OsSMF1 (Oryza sativa, UniProt Q6ZLB0 1-436)
T1 sequence: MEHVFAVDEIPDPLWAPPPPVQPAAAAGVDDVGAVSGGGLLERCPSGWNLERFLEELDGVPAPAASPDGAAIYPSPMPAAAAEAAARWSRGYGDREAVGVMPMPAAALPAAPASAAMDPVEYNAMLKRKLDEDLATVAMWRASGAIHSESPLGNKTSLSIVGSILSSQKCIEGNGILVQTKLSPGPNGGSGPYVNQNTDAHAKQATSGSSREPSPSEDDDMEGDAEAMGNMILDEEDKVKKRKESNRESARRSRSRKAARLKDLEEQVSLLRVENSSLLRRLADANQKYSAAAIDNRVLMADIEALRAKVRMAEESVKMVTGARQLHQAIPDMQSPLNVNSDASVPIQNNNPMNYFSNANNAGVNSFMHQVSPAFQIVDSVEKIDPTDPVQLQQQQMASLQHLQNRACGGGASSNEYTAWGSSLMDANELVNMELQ
Experiment: protein-binding microarray (RPBM); PBS, 2% BSA, 51.3 ng/ul salmon testes DNA, 50 uM zinc acetate, 200 nM TF, 25 C, 1 h; high values mean tight binding
Details: protein: recombinant; tags: N-terminal polyhistidine and DsRed monomer fusion (pET32a); chain copies: 2; label: CyDye5-dUTP incorporated in the synthesized complementary strand; 3' TTTTT single-stranded linker to array surface; dsDNA, one strand shown
Procedure, shortened: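 Transcription factors were made in E. coli BL21-CodonPlus as N-terminal fusions to a polyhistidine tag and DsRed, then purified on Ni–NTA. After primer extension with Cy5-dUTP and blocking with 2% BSA, a custom Agilent array was exposed for 1 h at 25 °C to 200 nM protein in PBS, 2% BSA, salmon testes DNA and 50 µM zinc acetate. Washed arrays were scanned on an Axon 4000B, and the binding signal is per-feature fluorescence intensity in arbitrary units.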

| Sequence | binding signal |
| --- | --- |
| TATTGGATCGCGATTGACCGTTACCTATAGGTACTGTACCCGGAGTCACCTAGTGCAG | 5960 fluorescence intensity (a.u.) |
| CAAGGCTTGATGATGTACAGCGTGGAATTACGTATTCTATCGGAGTCACCTAGTGCAG | 6470 fluorescence intensity (a.u.) |
| TGTTCTTCAACATGATATTCGAGCCCGTCAGCAATGGCAACGGAGTCACCTAGTGCAG | 4480 fluorescence intensity (a.u.) |
| CCATGTAAGTGCCACGTCAACGCCACGTGGATCGAAGACTCGGAGTCACCTAGTGCAG | 55500 fluorescence intensity (a.u.) |
| GCATGCCAACACACCTACGTTCGCTTCATAACTCCACAAGCGGAGTCACCTAGTGCAG | 3920 fluorescence intensity (a.u.) |
| GATGCCATCGGGATTCGAAAGGGTGCAACGTGTAGGCGTGCGGAGTCACCTAGTGCAG | 4300 fluorescence intensity (a.u.) |
| CTAGAGGTGTGCTGATAGAAAGTCGGTACGTGGCCTGTCACGGAGTCACCTAGTGCAG | 3830 fluorescence intensity (a.u.) |
| GCCCTCTTCCTATTGCCACGGATGCAATTTATTATGCTGGCGGAGTCACCTAGTGCAG | 6700 fluorescence intensity (a.u.) |
| CTGAACGGGTTCAACCTCCGATTGTTCGATTCCGCGTCATCGGAGTCACCTAGTGCAG | 5150 fluorescence intensity (a.u.) |
| GCTCTCCACAAAGGTGACAGTGAATCAGTTCATTCTGAAACGGAGTCACCTAGTGCAG | 3370 fluorescence intensity (a.u.) |
| ACGCAGTTGTTTGTGTCAGCGGCCACGTCACAAACCATTGCGGAGTCACCTAGTGCAG | 7430 fluorescence intensity (a.u.) |
| AACCAGCCATGTAGACACCACGTCAGCTGAAACCGCCATTCGGAGTCACCTAGTGCAG | 19600 fluorescence intensity (a.u.) |
| AATTTCTTCGGAATTTTGTCATCCACCCAGAAACTACCTGCGGAGTCACCTAGTGCAG | 3750 fluorescence intensity (a.u.) |
| TACGAAACCGGATCACTTTGGGTCCTCAGGCAGTTTTGACCGGAGTCACCTAGTGCAG | 4050 fluorescence intensity (a.u.) |
| CCCTTCGCAAAAGCCACGCGCCACCAAATCCTCCTTTTCTCGGAGTCACCTAGTGCAG | 3950 fluorescence intensity (a.u.) |
| GCGCGCGCGGGCGCGGCGTCGCTCCCAGCGTGCGCCATGGCGGAGTCACCTAGTGCAG | 6390 fluorescence intensity (a.u.) |
| GTATGTCCGAGATTTAGTGTTACACGTCAGATCCAACACACGGAGTCACCTAGTGCAG | 15700 fluorescence intensity (a.u.) |
| TTTGAGGGAGCTCAACATATATATGATGGTATCATTTGCTCGGAGTCACCTAGTGCAG | 4410 fluorescence intensity (a.u.) |
| TAGATATAATTACCTTTTCAGGACTCTATCCACGTGCGGCCGGAGTCACCTAGTGCAG | 3550 fluorescence intensity (a.u.) |
| CTCAATTAATTTCGTCCTAAGTGAACCTGTCATCTGTAGCCGGAGTCACCTAGTGCAG | 3420 fluorescence intensity (a.u.) |
| TATAATTATTTTGAGTCACTACTAACCTCCTTGCCCGTTACGGAGTCACCTAGTGCAG | 4760 fluorescence intensity (a.u.) |

Some of the entries so far, with bars between the fields.
Sequence | binding signal
GATGCCATCGGGATTCGAAAGGGTGCAACGTGTAGGCGTGCGGAGTCACCTAGTGCAG | 4300 fluorescence intensity (a.u.)
CTAGAGGTGTGCTGATAGAAAGTCGGTACGTGGCCTGTCACGGAGTCACCTAGTGCAG | 3830 fluorescence intensity (a.u.)
GCCCTCTTCCTATTGCCACGGATGCAATTTATTATGCTGGCGGAGTCACCTAGTGCAG | 6700 fluorescence intensity (a.u.)
CTGAACGGGTTCAACCTCCGATTGTTCGATTCCGCGTCATCGGAGTCACCTAGTGCAG | 5150 fluorescence intensity (a.u.)
GCTCTCCACAAAGGTGACAGTGAATCAGTTCATTCTGAAACGGAGTCACCTAGTGCAG | 3370 fluorescence intensity (a.u.)
ACGCAGTTGTTTGTGTCAGCGGCCACGTCACAAACCATTGCGGAGTCACCTAGTGCAG | 7430 fluorescence intensity (a.u.)
AACCAGCCATGTAGACACCACGTCAGCTGAAACCGCCATTCGGAGTCACCTAGTGCAG | 19600 fluorescence intensity (a.u.)
AATTTCTTCGGAATTTTGTCATCCACCCAGAAACTACCTGCGGAGTCACCTAGTGCAG | 3750 fluorescence intensity (a.u.)

Additional records follow:

| Sequence | binding signal |
| --- | --- |
| CCCACCGGCTGCGCGCCGATCCATCCATCCACACAAGGCCCGGAGTCACCTAGTGCAG | 3150 fluorescence intensity (a.u.) |
| AGAGGAAGAGATGACTCAGCCTGACATGTGGGGCCCATGCCGGAGTCACCTAGTGCAG | 8890 fluorescence intensity (a.u.) |
| GTGATATTTTACACGATACAATATTGCTATATTTTGGGACCGGAGTCACCTAGTGCAG | 24700 fluorescence intensity (a.u.) |
| AGGCGCTTGAATTGGGTGGCCTGACTCAGGCAACCGAATTCGGAGTCACCTAGTGCAG | 4530 fluorescence intensity (a.u.) |
| GGAGACGTGGGTCCCGGCCGTGCTGCTCGGCCACGTGCGACGGAGTCACCTAGTGCAG | 5030 fluorescence intensity (a.u.) |
| TTTCTGGCAGATCCAAGTAGCTGACTGGGTGCAGCATATGCGGAGTCACCTAGTGCAG | 5010 fluorescence intensity (a.u.) |
| AATTTCTGACTCTTAGATTAGATGTGCCAGATCCTACGGACGGAGTCACCTAGTGCAG | 3820 fluorescence intensity (a.u.) |
| GGCGGGCAGGGCGGACAGGAGGCGGGCGCGGCCGCGCGGGCGGAGTCACCTAGTGCAG | 3240 fluorescence intensity (a.u.) |
| TCCTCATCATATGCAAGAGGACTCGATCCAGTCATGCAAACGGAGTCACCTAGTGCAG | 3150 fluorescence intensity (a.u.) |
| ATTAGAAGCCTGAGGTTGGAGTGAAATATTCCGTGTTCAGCGGAGTCACCTAGTGCAG | 3280 fluorescence intensity (a.u.) |
| TTTCTGGCCCAAACAAAGACATTGCCACGCTAACCGAACTCGGAGTCACCTAGTGCAG | 9870 fluorescence intensity (a.u.) |
| ATTAAAAGATGTAGAAAGCGCTAACATGTCATCAAACTTTCGGAGTCACCTAGTGCAG | 3280 fluorescence intensity (a.u.) |
| GGCCCCTTGATAGGTAATAGCCCTAATCCAGTTGATATGGCGGAGTCACCTAGTGCAG | 3210 fluorescence intensity (a.u.) |
| CGTACCGGCCACGGGCGCGCGTCACGTGGAGCCGCATCCACGGAGTCACCTAGTGCAG | 4970 fluorescence intensity (a.u.) |
| TCTCTTCCCTCTCCGTTTGTCGTGTCGAAGCCTTTGCCCCCGGAGTCACCTAGTGCAG | 3870 fluorescence intensity (a.u.) |
| ATCAAATAATCTGCCGCGTGTCAGCAGAGACTCGAGACGCCGGAGTCACCTAGTGCAG | 4980 fluorescence intensity (a.u.) |
| CCATTCCCACCACCTCAGCCGAGCCCCTCCCCTCTCGACCCGGAGTCACCTAGTGCAG | 4110 fluorescence intensity (a.u.) |
| CCTCTCCATTGCCTTCACCTCACTCGCCGCCGGTGATCAGCGGAGTCACCTAGTGCAG | 3270 fluorescence intensity (a.u.) |
| ACACGCACACTTCAGCTCTCGTCGTCATACATCTGCTAGTCGGAGTCACCTAGTGCAG | 4430 fluorescence intensity (a.u.) |
| TTGGTACTAGCTGTTAACTCCTTCCGTTATACGGAGTACTCGGAGTCACCTAGTGCAG | 3220 fluorescence intensity (a.u.) |
| GGATCGCATGGTGATGACGACGTCGTGACATGGACGCAGGCGGAGTCACCTAGTGCAG | 7020 fluorescence intensity (a.u.) |

— publication PMC7819943, “Rice protein-binding microarrays: a tool to detect cis-acting elements near promoter regions in rice”
